Cleaved PARP after 72 h of treatment

Values as published with doi:10.1371/journal.pone.0140310, rounded.

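Human melanoma cells were exposed to one drug for 72 h in 1,536-well plates and read by automated microscopy after fixing and staining. Each value is the cleaved-PARP-positive fraction of nuclei relative to DMSO-treated wells, in %, so that 100 equals the control and higher values mean more apoptosis. Concentrations were fixed for each drug; these are the higher of two levels. These are primary screening values without error estimates. The marker varies much from line to line, for technical or biological reasons.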 An unselected part of the screen is shown. A dash means that no value is listed here.

| Drug | A375 | WM115 | COLO 829 | UACC-257 | WM1745 | IPC-298 | IST-MEL1 | A101D | LB2518-MEL | SK-MEL-5 | SK-MEL-2 | WM451Lu | WM1716 | A2058 | RVH-421 |
|---|---|---|---|---|---|---|---|---|---|---|---|---|---|---|---|
| N#Cc1c(O)c2c(-c3ccc(-c4ccccc4O)cc3)csc2[nH]c1=O at 10000 nM | 155 | 63.6 | 206 | 62.9 | - | 90.2 | 26.5 | 112 | 85.4 | 58.4 | 82.4 | 61.8 | 35.6 | 130 | 232 |
| C=CCNC1=C2C[C@@H](C)C[C@H](OC)[C@H](O)[C@@H](C)/C=C(\C)[C@H](OC(N)=O)[C@@H](OC)/C=C\C=C(/C)C(=O)NC(=CC1=O)C2=O at 10 nM | 42.5 | 1760 | 168 | 68.0 | 192 | 45.4 | 198 | 91.6 | 267 | 45.8 | 115 | 196 | 73.3 | 251 | 348 |
| O=C(O)C(=O)Nc1sc2c(c1C(=O)O)CCNC2 at 8330 nM | 53.8 | 62.9 | 93.1 | 103 | - | 126 | 192 | 61.2 | 112 | 135 | 68.3 | 47.8 | 118 | 115 | 127 |
| Cc1cc(SCc2sc(-c3ccc(C(F)(F)F)c(F)c3)nc2C)ccc1OCC(=O)O at 10000 nM | 173 | 59.7 | 77.7 | 92.3 | - | 43.1 | 62.9 | 93.5 | 41.7 | 167 | 97.4 | 51.8 | 78.7 | 75.1 | 84.2 |
| O=c1[nH]nc(Sc2ncc([N+](=O)[O-])s2)n1-c1ccc2c(c1)OCCO2 at 1000 nM | 35.6 | 185 | 100 | 94.6 | 92.8 | 54.7 | 93.6 | 50.8 | 140 | 79.7 | 81.4 | 61.0 | 142 | 89.4 | 53.8 |
| COc1cc([C@@H]2c3cc4c(cc3[C@@H](O[C@@H]3O[C@@H]5CO[C@@H](C)O[C@H]5[C@H](O)[C@H]3O)[C@H]3COC(=O)[C@H]23)OCO4)cc(OC)c1O at 100 nM | 140 | 158 | 184 | 113 | 198 | 188 | 104 | 102 | 89.6 | - | 292 | 95.2 | 52.2 | 179 | 111 |
| Cn1cc(/C=C2\C(=O)Nc3cccnc32)c2ccccc21 at 2000 nM | 62.0 | 53.3 | 81.5 | 111 | - | 89.1 | 77.1 | 30.7 | 65.3 | 33.1 | 21.9 | 43.2 | 18.6 | 61.9 | 153 |
| O=C(O)c1ccc(-c2c[nH]c3ncc(-c4ccccc4)cc23)cc1C1CCCC1 at 800 nM | 92.9 | 223 | 319 | 107 | 95.0 | 93.8 | 129 | 59.7 | 53.8 | 63.5 | 148 | 55.8 | 240 | 90.8 | 76.8 |
| C#Cc1cccc(Nc2ncnc3cc(OCCOC)c(OCCOC)cc23)c1 at 4000 nM | 125 | 191 | 117 | 32.8 | 198 | 89.7 | 218 | 93.6 | 96.0 | 233 | 94.8 | 81.4 | 101 | 154 | 27.3 |
| Cc1cc(Nc2cc(N3CCN(C)CC3)nc(/C=C/c3ccccc3)n2)n[nH]1 at 200 nM | 114 | 118 | 74.1 | 214 | 141 | 178 | 29.1 | 223 | 74.8 | 90.9 | 94.7 | 83.3 | 140 | 159 | 124 |
| O=C(O)[C@@H]1[O][Sb](=[O])([O][Sb]2(=[O])[O][C@H]([C@H](O)CO)[C@H](O)[C@H](C(=O)O)[O]2)[O][C@H]([C@H](O)CO)[C@@H]1O (stereo partly shown) at 10000 nM | 127 | 135 | 185 | 204 | 106 | 68.1 | 88.1 | 78.9 | 68.8 | 106 | 113 | 187 | 128 | 66.8 | 99.0 |
| NC(=O)c1ccc(N(C(N)=O)c2c(F)cccc2F)nc1-c1ccc(F)cc1F at 2000 nM | 55.7 | 108 | 175 | 47.0 | 96.5 | 254 | 94.5 | 84.7 | 166 | 61.6 | 42.8 | 36.6 | 36.5 | 76.6 | 78.6 |
| Clc1ccc(Nc2nnc(Cc3ccncc3)c3ccccc23)cc1 at 10000 nM | 103 | 74.1 | 197 | 164 | 125 | 194 | 142 | 89.3 | 58.5 | 253 | 35.9 | 168 | 151 | 212 | 108 |
| Cc1nc(Nc2ncc(C(=O)Nc3c(C)cccc3Cl)s2)cc(N2CCN(CCO)CC2)n1 at 20 nM | 132 | 251 | 218 | 119 | 273 | 126 | 142 | 70.4 | 155 | 125 | 159 | 336 | 191 | 268 | 144 |
| O=C(Nc1cc(C(F)(F)F)cc(C(F)(F)F)c1)c1cc(Cl)ccc1O at 80 nM | 69.1 | 12.6 | 146 | 151 | 147 | 78.8 | 73.2 | 70.4 | 205 | 5.9 | 133 | 131 | 53.4 | 72.1 | 132 |
| O=S(=O)(c1ccccc1)N(CC(F)(F)F)c1ccc(C(O)(C(F)(F)F)C(F)(F)F)cc1 at 7000 nM | 170 | 115 | 106 | 35.6 | - | 98.1 | 52.0 | 198 | 54.3 | 44.8 | 116 | 46.2 | 39.7 | 100 | 663 |
| COc1cc2ncnc(Nc3ccc(Oc4ccccc4)cc3)c2cc1OC at 10000 nM | 65.0 | 143 | 63.6 | 169 | - | 76.8 | 47.2 | 149 | 51.1 | 203 | 95.3 | 39.4 | 85.6 | 84.3 | 37.7 |
| C[C@@H](N)c1ccc(C(=O)Nc2ccnc3[nH]ccc23)cc1 at 2000 nM | 39.0 | 99.4 | 54.3 | 73.2 | 295 | 99.6 | 81.8 | 39.9 | 89.2 | 86.4 | 395 | 138 | 346 | 203 | 85.2 |
| O=C1NC(=O)/C(=C/c2ccc(-c3ccc(F)cc3O)o2)S1 at 5000 nM | 68.1 | 112 | 122 | 140 | - | 45.1 | 74.5 | 69.4 | 123 | 358 | 37.1 | 120 | 210 | 210 | 139 |
| COc1ccc(C2=N[C@@H](c3ccc(Cl)cc3)[C@@H](c3ccc(Cl)cc3)N2C(=O)N2CCNC(=O)C2)c(OC(C)C)c1 at 500 nM | 70.3 | 200 | 122 | 132 | 72.1 | 67.5 | 59.5 | 285 | 160 | 125 | 136 | 114 | 62.9 | 110 | 203 |
| Oc1cc(-c2nc(-c3ccccc3)[nH]c2-c2ccncc2)ccc1Cl at 1000 nM | 274 | 215 | 60.2 | 128 | - | 63.9 | 37.6 | 211 | 44.2 | 75.0 | 346 | 1590 | 93.4 | 190 | 99.7 |
| CCCCCCCCc1ccc(CCC(N)(CO)CO)cc1 at 10000 nM | 58.7 | 2540 | 368 | 200 | 7650 | 550 | 1260 | 1050 | 17300 | 1050 | 16100 | 3260 | 10400 | 1180 | 4120 |
| c1cc(-c2cnn3cc(-c4ccc(OCCN5CCCCC5)cc4)cnc23)ccn1 at 2000 nM | 78.4 | 127 | 112 | 69.2 | - | 137 | 67.4 | 39.1 | 65.3 | 219 | 35.8 | 746 | 76.8 | 169 | 30.0 |
| Cn1cc(C2=C(c3cn(C4CCN(Cc5ccccn5)CC4)c4ccccc34)C(=O)NC2=O)c2ccccc21 at 4000 nM | 298 | 196 | 63.6 | 260 | 113 | 114 | 42.9 | 70.4 | 73.0 | 68.3 | 96.8 | 182 | 96.6 | 177 | 179 |
| CC(=O)O[C@@]12CO[C@@H]1C[C@H](O)[C@@]1(C)C(=O)[C@H](O)C3=C(C)[C@@H](OC(=O)[C@H](O)[C@@H](NC(=O)OC(C)(C)C)c4ccccc4)C[C@@](O)([C@@H](OC(=O)c4ccccc4)[C@H]21)C3(C)C at 0.5 nM | 82.5 | 775 | 467 | 220 | 260 | 489 | 255 | 163 | 832 | 3280 | 1800 | 128 | 373 | 1960 | 196 |
| C[C@]12O[C@H](C[C@]1(O)CO)n1c3ccccc3c3c4c(c5c6ccccc6n2c5c31)CNC4=O at 20 nM | 85.9 | 381 | 151 | 59.9 | 144 | 193 | 43.7 | 106 | 444 | 353 | 113 | 41.4 | 78.6 | 141 | 82.8 |
| O=C(O)c1ccc2c(c1)nc(Nc1cccc(Cl)c1)c1ccncc12 at 2000 nM | 631 | 424 | 180 | 199 | 98.4 | 90.7 | 56.7 | 51.9 | 113 | 60.1 | 216 | 54.0 | 254 | 147 | 485 |
| COc1ccc(COc2ccc(Cc3cnc(N)nc3N)cc2OC)cc1 at 5000 nM | 98.2 | 54.0 | 134 | 59.2 | - | 75.4 | 93.7 | 67.7 | 152 | 70.3 | 85.3 | 79.5 | 36.5 | 70.4 | 55.3 |